From article PMC9133088 come the findings set out here.

Sequences of proteins named here, by UniProt entry; tags and fusion partners are left off.
UniProt Q9P2J5: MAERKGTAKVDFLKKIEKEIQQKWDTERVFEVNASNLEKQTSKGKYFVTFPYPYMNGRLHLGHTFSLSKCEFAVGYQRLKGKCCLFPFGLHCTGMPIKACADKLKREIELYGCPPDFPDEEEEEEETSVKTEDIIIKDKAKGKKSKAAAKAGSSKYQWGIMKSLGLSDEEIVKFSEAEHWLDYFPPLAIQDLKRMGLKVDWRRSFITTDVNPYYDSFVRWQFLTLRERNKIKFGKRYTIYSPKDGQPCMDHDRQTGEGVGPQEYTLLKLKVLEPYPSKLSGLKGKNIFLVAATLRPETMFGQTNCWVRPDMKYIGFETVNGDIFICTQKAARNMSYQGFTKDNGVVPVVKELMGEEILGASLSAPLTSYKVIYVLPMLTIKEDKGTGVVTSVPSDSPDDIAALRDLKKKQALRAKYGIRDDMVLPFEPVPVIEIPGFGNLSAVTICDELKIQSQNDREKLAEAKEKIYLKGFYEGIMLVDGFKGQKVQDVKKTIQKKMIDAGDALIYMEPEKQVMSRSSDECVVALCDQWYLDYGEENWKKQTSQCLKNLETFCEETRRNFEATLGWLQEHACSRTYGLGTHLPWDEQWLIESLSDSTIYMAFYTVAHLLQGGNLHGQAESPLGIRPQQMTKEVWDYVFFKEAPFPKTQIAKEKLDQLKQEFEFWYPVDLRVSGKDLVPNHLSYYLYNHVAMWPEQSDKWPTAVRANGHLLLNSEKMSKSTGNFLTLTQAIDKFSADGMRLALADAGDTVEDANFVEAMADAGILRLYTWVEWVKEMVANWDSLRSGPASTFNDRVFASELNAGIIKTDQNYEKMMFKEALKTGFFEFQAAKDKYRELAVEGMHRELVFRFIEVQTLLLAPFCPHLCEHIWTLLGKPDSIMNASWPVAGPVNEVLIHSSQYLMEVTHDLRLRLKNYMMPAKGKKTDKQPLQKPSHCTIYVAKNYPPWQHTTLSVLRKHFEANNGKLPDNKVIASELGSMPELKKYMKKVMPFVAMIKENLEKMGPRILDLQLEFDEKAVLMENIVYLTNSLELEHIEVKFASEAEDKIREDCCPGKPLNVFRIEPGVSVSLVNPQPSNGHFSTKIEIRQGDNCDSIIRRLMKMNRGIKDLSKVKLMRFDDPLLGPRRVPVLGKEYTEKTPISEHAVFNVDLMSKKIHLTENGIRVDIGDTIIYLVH

The test has as its target leucyl-tRNA synthetase 1 (LARS1), endogenous (human (endogenous in SW620)) (UniProt Q9P2J5). As to the kind of experiment: co-IP; endogenous proteins, SW620 lysates; anti-LARS1 antibody-conjugated agarose beads, immunoblot; lysis in 50 mM Tris-HCl pH 7.4, 10 mM NaCl, 0.5% Triton X-100; cells leucine-starved 1.5 h then 0.4 mM leucine 15 min with 11 mM glucose (Fig. 1f), or glucose-starved up to 4 h and glucose re-added up to 30 min (Fig. 2c, 5g, 5i).

Results are given in words; binding and its absence hold for the method and conditions named. In cells and extracts the contact can be indirect. Some binding calls cover weakened binding; strength is not graded here.

B1: O-GlcNAc transferase (OGT1), endogenous (enzyme, UniProt O15294 1-1046)
chain: MASSVGNVADSTEPTKRMLSFQGLAELAHREYQAGDFEAAERHCMQLWRQEPDNTGVLLLLSSIHFQCRRLDRSAHFSTLAIKQNPLLAEAYSNLGNVYKERGQLQEAIEHYRHALRLKPDFIDGYINLAAALVAAGDMEGAVQAYVSALQYNPDLYCVRSDLGNLLKALGRLEEAKACYLKAIETQPNFAVAWSNLGCVFNAQGEIWLAIHHFEKAVTLDPNFLDAYINLGNVLKEARIFDRAVAAYLRALSLSPNHAVVHGNLACVYYEQGLIDLAIDTYRRAIELQPHFPDAYCNLANALKEKGSVAEAEDCYNTALRLCPTHADSLNNLANIKREQGNIEEAVRLYRKALEVFPEFAAAHSNLASVLQQQGKLQEALMHYKEAIRISPTFADAYSNMGNTLKEMQDVQGALQCYTRAIQINPAFADAHSNLASIHKDSGNIPEAIASYRTALKLKPDFPDAYCNLAHCLQIVCDWTDYDERMKKLVSIVADQLEKNRLPSVHPHHSMLYPLSHGFRKAIAERHGNLCLDKINVLHKPPYEHPKDLKLSDGRLRVGYVSSDFGNHPTSHLMQSIPGMHNPDKFEVFCYALSPDDGTNFRVKVMAEANHFIDLSQIPCNGKAADRIHQDGIHILVNMNGYTKGARNELFALRPAPIQAMWLGYPGTSGALFMDYIITDQETSPAEVAEQYSEKLAYMPHTFFIGDHANMFPHLKKKAVIDFKSNGHIYDNRIVLNGIDLKAFLDSLPDVKIVKMKCPDGGDNADSSNTALNMPVIPMNTIAEAVIEMINRGQIQITINGFSISNGLATTQINNKAATGEEVPRTIIVTTRSQYGLPEDAIVYCNFNQLYKIDPSTLQMWANILKRVPNSVLWLLRFPAVGEPNIQQYAQNMGLPQNRIIFSPVAPKEEHVRRGQLADVCLDTPLCNGHTTGMDVLWAGTPMVTMPGETLASRVAASQLTCLGCLELIAKNRQEYEDIAVKLGTDLEYLKKVRGKVWKQRISSPLFNTKQYTMELERLYLQMWEHYAAGNKPDHMIKPVEVTESA
With B1, the binding entry is recorded as “binds”.
